# Data: PubChem BioAssay AID1688 (National Center for Advancing Translational Sciences (NCATS), 2009)
# Hit rate of the full screen: of about 220,000 compounds, about 2,400 (1.1%) were called active. This list was built around the results that the source calls inconclusive (neither active nor inactive); the mix of calls is not that of the screen. The call rests on the fitted dose curve; in most records, active means well fitted inhibition curve with a large enough effect; inconclusive means small, poorly fitted or top-dose-only effect, or effect the other way; inactive means no such curve, though single readings can be large or run the other way. Potencies beside an inconclusive call are fits to weak or partial responses and may not hold up.
# Experiment: qHTS Multiplex Assay to Identify Dual Action Probes in a Cell Model of Huntington: Aggregate Formation (GFP); further: nearly all actives have a fitted effect of over 60% in size
# Settings: PC12 HttQ103-GFP aggregates, Acumen cytometry, 40 h; activity change, negative = inhibition: at 46.1 µM (top of the series) unless noted
# Description: NIH Chemical Genomics Center [NCGC]
# NIH Molecular Libraries Probe Production centers Network [MLPCN]
# Assay Submitter (PI): Wei Zheng
# Huntington's disease is a neurodegenerative disorder caused by a trinucleotide repeat expansion in Exon 1 of the Huntingtin gene. The CAG trinucleotide encodes glutamine and polyglutamine expansions cause cell death in selective areas of the brain. Huntington polyglutamine repeats have the tendency to form aggregates which are observable in later stages of the disease. The exact nature of the aggregates, whether toxic, protective, or insignificant, is unclear.
# A stable PC12 cell line containing a gene fusion of Exon 1 of the Huntingtin gene linked to GFP under the control of the inducible ecdysone promoter were used as the cell-based model of Huntington Disease for high throughput screening. Exon 1 of the Huntingtin gene contained an expansion of 103 polyglutamines (Q103) which, when expressed, caused cell death and distinct, bright GFP aggregates. The amount of cell death and the size and intensity of GFP aggregates increased over time and induction level. The cell death were quantified with a measurement of ATP content in the cells. A maximal 40-50% of cell death was observed when the Huntington gene was induced in this cell line.
# We optimized this assay in a homogeneous 1536 well format. A quantitative high throughput screen (qHTS) was conducted on the PC12 cells which were induced to express the toxic fusion construct. Small molecules which reduced aggregate formation were identified bu using a laser scanning cytometer calibrated to detect the aggregates in cell lysates.
# PC12 cells stably containing a construct with an ecdysone inducible promoter expressing GFP fused to the exon 1 of HTTQ103 (Huntington protein which containing a 103 ployglutamine expansion) were used.
# NCGC Assay Protocol Summary:
# Sequence, Parameter, Description
# 1, Reagent, 5 uL 1500 cells/well 1536 TC treated White clear bottom plate
# 2, Compound, 23 nL Tebufenozide inducer (100 nM final) to all columns
# 3, Compound, 23 nL 40 uM to 0.5 nM Libraries
# 5, Reagent, 5 ul ATPLite cell death assay reagent
# 6, Detector, Aggregate quantitation by Acumen Explorer
# Media consisted of phenol red free DMEM + 5% equine serum (Hyclone # SH30072.03 ), 5% supplemented Bovine Calf Serum (Hyclone # SH30074.03 ), 1x pen/strep, no G418
# Acumen Explorer was used to quantitate GFP aggregates using the following criteria: […] laser excitation, 500-530 nm emission, the PMT was set at a voltage of 450 volts, and objects ranging in size of […] in size having a signal of 6 STDEV above background were collected.
# Control columns: 1 = DMSO, 2= 2 uM teb dilns (1:1), 4 = 100 nM Teb inducer. Sample columns received 100 nM Teb.
# On the % scale 0 is the no-effect control and ±100 the full control effect; potency means the concentration at half of the fitted maximal effect.
Compound,Potency,"activity change, negative = inhibition"
N#CC1=C2SCC(O)(c3ccccc3)N2C(=O)CC1c1ccccc1 (centres undefined),"inconclusive: 12.6 µM [inhibitor, partial curve]",
CN(CCOC(=O)c1ccc2c(c1)OCCO2)C(C)(C)C,,inactive: 3.69%
CCCCNC(=S)Nc1cccc2cnccc12,"inconclusive: 3.55 µM [inhibitor, single point]",
Cn1cc([N+](=O)[O-])c(C(=O)Nc2ccn(C34CC5CC(CC(C5)C3)C4)n2)n1,"inconclusive: 3.98 µM [activator, partial curve]",
CCOC(=O)c1c(NC(=O)Cn2nc(C(=O)O)c3ccccc3c2=O)sc2c1CCC(C)C2 (centres undefined),"inconclusive: 3.16 µM [inhibitor, partial curve]",
Cc1cccc(NC(=O)c2sc3nc(-c4ccc(F)cc4)cn3c2C)n1,,inactive: 13.4%
N#CC(C#N)=C(Nc1ccc(F)cc1)SCc1cccc(F)c1,"inconclusive: 2.51 µM [inhibitor, full curve]",
CCOc1ccc(S(=O)(=O)N2CCN(C(=O)c3cc4c(s3)CCCC4)CC2)cc1,"inconclusive: 35.5 µM [inhibitor, single point]",
Cn1cc([N+](=O)[O-])c(C(=O)Nc2ccc(C(=O)N3CCCCC3)cc2)n1,"inconclusive: 7.94 µM [activator, partial curve]",
c1ccc(-c2nc(N3CCOCC3)cc(N3CCOCC3)n2)cc1,"inconclusive: 35.5 µM [inhibitor, single point]",
CCCC(=O)NC(c1ccco1)c1cc(Cl)c2cccnc2c1O (centres undefined),"inconclusive: 4.47 µM [inhibitor, full curve]",
Cc1cccc(CN2CCC(CNC(=O)C3CCCN(S(=O)(=O)c4cnc[nH]4)C3)CC2)c1 (centres undefined),"inconclusive: 1.26 µM [activator, single point]",
CC1=NN(C(=O)c2ccc(Cn3cc([N+](=O)[O-])cn3)cc2)C(O)(C(F)(F)F)C1 (centres undefined),"inconclusive: 10 µM [inhibitor, partial curve]",
Nc1ccc(S(N)(=O)=O)cc1N,,inactive: -27.4% [at 9.22 µM]
Clc1ccc(Nc2nc(-c3cccs3)cs2)nc1,"inconclusive: 20 µM [inhibitor, single point]",
COc1ccc2nc(NC(=O)C3CCN(S(=O)(=O)c4cccs4)CC3)sc2c1,"inconclusive: 35.5 µM [inhibitor, single point]",
Cc1cccc(NC(=O)/C=C/c2cccs2)n1,,inactive: -28.8%
O=[N+]([O-])c1cccc2ccc(/C=C/c3ccc(F)cc3)nc12,,inactive: -4.11%
Cc1ccc(NCc2nnc(SCC(=O)c3ccccc3)n2Cc2ccco2)c(C)c1,,inactive: -2.67%
O/N=C1\CCCC\C1=C/c1ccccc1,,inactive: 0.499%
COc1cccc2[nH]c3c(N4CCCCC4)ncnc3c12,"inconclusive: 3.16 µM [inhibitor, partial curve]",
CCOC(=O)N1CCN(S(=O)(=O)c2ccc(OCC)c3ccccc23)CC1,"inconclusive: 2 µM [inhibitor, full curve]",
Cc1nc(SC2CCOC2=O)c2c(C)c(C)sc2n1 (centres undefined),,inactive: 13.2%

# Three entries from above, reformatted.
Compound	Potency	activity change, negative = inhibition
CCOc1ccc(S(=O)(=O)N2CCN(C(=O)c3cc4c(s3)CCCC4)CC2)cc1	inconclusive: 35.5 µM [inhibitor, single point]	
Cc1cccc(NC(=O)/C=C/c2cccs2)n1		inactive: -28.8%
CCOC(=O)N1CCN(S(=O)(=O)c2ccc(OCC)c3ccccc23)CC1	inconclusive: 2 µM [inhibitor, full curve]	

# Next part:

Compound,Potency,"activity change, negative = inhibition"
CN(C)c1ccc2nc3ccc(=[N+](C)C)cc-3sc2c1,"inconclusive: 12.6 µM [inhibitor, partial curve]",
O=C1CC2(CON=C2c2ccc(F)cc2)C(=O)N1c1ccc(F)cc1 (centres undefined),"inconclusive: 1.78 µM [inhibitor, partial curve]",
Cc1ccc(S(=O)(=O)N/N=C/c2cc(Br)c(C)o2)cc1,"inconclusive: 11.2 µM [activator, partial curve]",
CCOC(=O)c1c(C)oc2cc(Br)c(OC(C)C(=O)OCC)cc12 (centres undefined),"inconclusive: 5.62 µM [inhibitor, single point]",
NC1=NC(=Nc2ccc(S(=O)(=O)N3CCOCC3)cc2)c2ccccc21,,inactive: -33.5% [at 9.22 µM]
COCc1cc(C)nc(OCC(=O)N/N=C/c2ccc(O)cc2O)c1C#N,"inconclusive: 11.2 µM [inhibitor, partial curve]",
CCOc1cc(/C=C/c2nc3cc(C)c(C)cc3s2)ccc1OCC(=O)N1CCOCC1,"inconclusive: 35.5 µM [inhibitor, single point]",
Cc1cc(NC(=S)NC(=O)C2CC2)ccc1Br,"inconclusive: 35.5 µM [inhibitor, single point]",
CCS(=O)(=O)N1CCC(C(=O)N2CCOCC2)CC1,,inactive: -11.6%
Cc1cnn(-c2ccc3nnc(-c4ccc(Br)cc4)n3n2)c1,"inconclusive: 5.62 µM [inhibitor, single point]",
Nc1ccc(S(=O)(=O)Nc2nccc(/C=C/c3ccccc3F)n2)cc1,"inconclusive: 5.01 µM [activator, full curve, poor fit]",
CC(=O)c1cc2c(cc1NC(=O)CN1CCN(c3cccc(C(F)(F)F)c3)CC1)OCO2,,inactive: -22.3%
Cc1ccc(Cl)cc1N1CCN(C(=O)C2CCN(S(=O)(=O)c3cccnc3)CC2)CC1,active: 11.2 µM,
CCOC(=O)C1CCN(C(=O)CCc2c(C)nc3c(-c4ccc(F)cc4)c(C)nn3c2C)CC1,,inactive: -5.18%
COc1ccc(-c2cn3ccccc3n2)cc1[N+](=O)[O-],"inconclusive: 11.2 µM [activator, partial curve]",
Cc1cc(Cl)ccc1OCC(=O)N1CCCN(C(=O)COc2ccc(Cl)cc2C)CC1,"inconclusive: 35.5 µM [inhibitor, single point]",
O=C(N/N=C/c1ccccn1)c1cccc([N+](=O)[O-])c1,"inconclusive: 11.2 µM [inhibitor, single point]",
CC1CCN(C(=O)c2ccc(COc3ccccc3Cl)o2)CC1,"inconclusive: 22.4 µM [inhibitor, single point]",
Cc1cc(C(=O)COc2ncnc3sccc23)c(C)n1C1CC1,"inconclusive: 3.55 µM [activator, single point]",
COC(=O)C1=C(C)N(c2ccc(Cl)cc2)/C(=C/c2cccs2)C1=O,"inconclusive: 12.6 µM [activator, single point]",
Cc1onc(-c2c(Cl)cccc2Cl)c1C(=O)N/N=C(\N)COc1ccc(Cl)cc1,"inconclusive: 5.01 µM [inhibitor, full curve]",
Cc1ccc(O)c2ncccc12,"inconclusive: 7.08 µM [inhibitor, full curve, poor fit]",
Cc1occc1-c1nnc(SCC(=O)c2ccc(F)cc2)n1Cc1ccco1,"inconclusive: 35.5 µM [activator, partial curve, poor fit]",

Compound,Potency,"activity change, negative = inhibition"
Cc1csc(SCc2nc3scc(-c4ccccc4)c3c(=O)[nH]2)n1,,inactive: -20.5%
Cc1ccc(N(C(=O)c2nsc(Cl)c2Cl)C(C(=O)NC2CCCC2)c2ccc(O)cc2)cc1C (centres undefined),"inconclusive: 35.5 µM [inhibitor, single point]",
COC(=O)C1C(O)=C(C=NCC(C)N=CC2=C(O)C(C(=O)OC)C(C)(C)CC2=O)C(=O)CC1(C)C (centres undefined),"inconclusive: 3.98 µM [inhibitor, single point]",
COC(=O)c1ccc(NC(=O)c2ccccc2N(C)S(=O)(=O)c2ccccc2)cc1,"inconclusive: 28.2 µM [activator, partial curve, poor fit]",
Cn1ncc(Br)c1C(=O)Nc1c(F)c(F)cc(F)c1F,"inconclusive: 2.24 µM [activator, full curve]",
O=C(Nc1ccccc1)c1ccccc1O,"inconclusive: 22.4 µM [inhibitor, single point]",
CCOC(=O)CC(=O)CSc1ccc2nnc(-c3cccc(F)c3)n2n1,"inconclusive: 25.1 µM [inhibitor, single point]",
O=C(Oc1ccc(Cl)c2cccnc12)c1ccco1,"inconclusive: 22.4 µM [inhibitor, single point]",
COC(=O)c1cc(OC)c(OC)cc1NC(=O)Nc1ccc(OC)cc1OC,,inactive: 14%
COc1ccc(Cn2c(CCC(=O)Nc3ccc(C)c(C)c3)nc3cccnc32)cc1,"inconclusive: 1.26 µM [inhibitor, single point]",
Cc1c(N2C(=O)CS/C2=N\N=C\c2ccc(Br)cc2)c(=O)n(-c2ccccc2)n1C,"inconclusive: 1.26 µM [activator, single point]",
Nc1nnc(SCn2nnc3ccccc3c2=O)s1,"inconclusive: 0.316 µM [activator, partial curve, poor fit]",
Cc1ccc(CSCCNC(=O)c2ccc(C)cc2)cc1,,inactive: -5.34%
COC(=O)C1=C(C)N(c2ccc(F)c(Cl)c2)C(=O)C1,"inconclusive: 7.94 µM [activator, single point]",
Cc1ccccc1-n1nnnc1SC(C)C(=O)NC1CCCc2ccccc21 (centres undefined),,inactive: 7.13%
CN(C)c1nc(C=C(C#N)C#N)c(Cl)n1-c1ccc(F)cc1,"inconclusive: 35.5 µM [inhibitor, single point]",
COc1ccc(C2=CC(=O)OC3(CCCC3)O2)cc1,"inconclusive: 1 µM [activator, full curve, poor fit]",
COc1cc(C(=O)N(Cc2ccco2)Cc2cc3ccccc3[nH]c2=O)cc(OC)c1OC,,inactive: 20.4%
Cc1nnc(NNS(=O)(=O)c2ccc(Cl)cc2)[nH]c1=O,,inactive: 13% [at 9.22 µM]
O=S(=O)(Nc1cc(Sc2cccc3cccnc23)c(O)c2ccccc12)c1ccccc1,"inconclusive: 25.1 µM [inhibitor, single point]",
COc1ccc(-c2c[n+](CC(=O)OC3CC(C)CCC3C(C)C)c3n2CCC3)cc1 (centres undefined),active: 10 µM,
CCn1c(SCC(=O)N/N=C/C(C)=C/c2ccco2)nnc1-c1ccccc1,,inactive: -4.03%
COc1ccc(C(=O)NCc2oc(-c3ccccc3)cc2C(=O)O)cc1,active: 3.16 µM,
